Paper PMC9918736
Results are given in words; binding and its absence hold for the method and conditions named. In cells and extracts the contact can be indirect. Some entries that bind do so weakly or less than the wild type.

The chains behind the UniProt entries cited, without tags or fusion partners. Residues count along the entry.
UniProt Q8VI56, residues 21-1725: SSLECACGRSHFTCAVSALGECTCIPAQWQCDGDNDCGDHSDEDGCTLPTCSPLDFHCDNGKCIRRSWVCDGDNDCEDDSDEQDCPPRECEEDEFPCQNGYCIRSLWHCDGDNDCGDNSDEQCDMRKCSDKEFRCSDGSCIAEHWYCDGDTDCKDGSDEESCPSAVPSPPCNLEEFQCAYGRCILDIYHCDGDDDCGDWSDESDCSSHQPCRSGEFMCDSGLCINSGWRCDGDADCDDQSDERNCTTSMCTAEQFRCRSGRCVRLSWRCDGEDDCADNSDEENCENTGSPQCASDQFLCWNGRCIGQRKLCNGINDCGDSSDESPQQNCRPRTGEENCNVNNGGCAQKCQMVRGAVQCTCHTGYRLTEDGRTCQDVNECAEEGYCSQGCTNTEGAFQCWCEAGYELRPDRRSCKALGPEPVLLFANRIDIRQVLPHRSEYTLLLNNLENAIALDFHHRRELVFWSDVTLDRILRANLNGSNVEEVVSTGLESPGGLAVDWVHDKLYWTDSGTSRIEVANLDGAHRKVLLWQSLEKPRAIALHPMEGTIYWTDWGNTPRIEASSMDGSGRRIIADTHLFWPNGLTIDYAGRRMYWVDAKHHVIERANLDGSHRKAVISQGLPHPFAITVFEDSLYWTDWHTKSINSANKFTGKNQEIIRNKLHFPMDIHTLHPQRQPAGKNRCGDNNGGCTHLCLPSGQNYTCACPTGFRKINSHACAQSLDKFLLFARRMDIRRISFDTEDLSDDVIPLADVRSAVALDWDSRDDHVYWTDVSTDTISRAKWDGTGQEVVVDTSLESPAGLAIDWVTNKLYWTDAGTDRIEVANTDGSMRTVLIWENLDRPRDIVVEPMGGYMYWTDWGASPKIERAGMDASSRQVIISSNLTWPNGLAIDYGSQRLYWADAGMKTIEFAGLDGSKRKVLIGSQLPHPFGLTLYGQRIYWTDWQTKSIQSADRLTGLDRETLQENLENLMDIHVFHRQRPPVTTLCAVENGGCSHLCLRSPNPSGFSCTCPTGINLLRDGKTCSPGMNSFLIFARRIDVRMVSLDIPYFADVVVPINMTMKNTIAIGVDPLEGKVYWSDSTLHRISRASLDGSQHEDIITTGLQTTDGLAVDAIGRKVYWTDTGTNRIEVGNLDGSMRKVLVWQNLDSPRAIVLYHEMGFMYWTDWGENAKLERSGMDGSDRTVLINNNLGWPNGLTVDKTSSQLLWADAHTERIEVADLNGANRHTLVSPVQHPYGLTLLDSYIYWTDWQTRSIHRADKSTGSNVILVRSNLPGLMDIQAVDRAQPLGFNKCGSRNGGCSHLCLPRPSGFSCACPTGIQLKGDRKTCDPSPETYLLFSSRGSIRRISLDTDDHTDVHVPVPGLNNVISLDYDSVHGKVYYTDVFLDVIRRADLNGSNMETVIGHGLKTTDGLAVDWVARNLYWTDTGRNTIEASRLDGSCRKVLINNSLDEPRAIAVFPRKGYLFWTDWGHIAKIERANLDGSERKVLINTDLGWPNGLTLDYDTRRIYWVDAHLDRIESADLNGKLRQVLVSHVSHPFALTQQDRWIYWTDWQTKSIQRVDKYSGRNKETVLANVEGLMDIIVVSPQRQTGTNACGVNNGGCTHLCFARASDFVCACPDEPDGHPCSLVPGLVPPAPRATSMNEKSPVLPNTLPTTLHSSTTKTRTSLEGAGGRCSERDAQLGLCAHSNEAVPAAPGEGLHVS
UniProt P12023, residues 18-770: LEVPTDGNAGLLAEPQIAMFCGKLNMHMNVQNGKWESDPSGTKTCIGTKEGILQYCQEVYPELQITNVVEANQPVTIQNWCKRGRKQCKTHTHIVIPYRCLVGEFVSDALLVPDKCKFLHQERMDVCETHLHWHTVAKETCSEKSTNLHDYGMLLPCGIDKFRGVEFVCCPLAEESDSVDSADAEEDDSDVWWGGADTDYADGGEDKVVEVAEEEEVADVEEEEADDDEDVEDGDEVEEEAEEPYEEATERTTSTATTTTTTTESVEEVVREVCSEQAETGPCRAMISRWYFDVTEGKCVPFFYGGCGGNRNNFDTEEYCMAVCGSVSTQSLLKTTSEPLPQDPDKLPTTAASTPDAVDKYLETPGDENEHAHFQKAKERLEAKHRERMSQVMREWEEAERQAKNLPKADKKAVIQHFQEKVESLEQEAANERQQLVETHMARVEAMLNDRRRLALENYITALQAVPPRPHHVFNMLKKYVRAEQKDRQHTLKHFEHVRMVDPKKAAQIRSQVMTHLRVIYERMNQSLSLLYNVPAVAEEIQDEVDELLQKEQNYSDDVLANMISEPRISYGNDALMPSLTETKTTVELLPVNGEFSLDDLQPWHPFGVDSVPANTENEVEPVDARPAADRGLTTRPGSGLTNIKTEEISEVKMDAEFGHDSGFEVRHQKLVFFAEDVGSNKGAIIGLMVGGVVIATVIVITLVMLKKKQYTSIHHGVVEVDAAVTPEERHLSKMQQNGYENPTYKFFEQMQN

Target: Flag-tagged ECD of LRP4 (UniProt Q8VI56)
Assay: co-IP; HEK293 cells co-transfected with APP constructs and Flag-tagged LRP4 ECD constructs; lysates in modified RIPA buffer (150 mM NaCl, 2.5 mM EDTA, 50 mM Tris-HCl) incubated with anti-Flag beads 4-5 h or overnight at 4 °C; immunocomplexes probed with anti-APP antibody

binding: binds
Substance: GFP-APP (amyloid precursor protein) (from UniProt P12023 18-770)
